According to PMC4800423:
No constants are given. Whether binding was seen depends on the method and setting. For part of these data: In cells and extracts the contact can be indirect. Sequences can lack the tags named with a protein.

What was measured:
[1] = target: Est2 (telomerase reverse transcriptase domain-containing protein), two-hybrid fusions (S. cerevisiae) (UniProt Q06163); test: two-hybrid; yeast two-hybrid; Est2 fused to the Gal4 activation domain and DNA binding domain separately
[2] = target: Est2 tagged with 3xFLAG or 13xMyc (Est2-FLAG and Est2-myc co-expressed) (S. cerevisiae) (UniProt Q06163); test: co-IP; Est2-FLAG and Est2-myc co-expressed in yeast; whole cell lysates; read out by Western blot
[3] = target: Est2 tagged with 3xFLAG or 13xMyc (Est2-FLAG and Est2-myc co-expressed) (S. cerevisiae) (UniProt Q06163); test: co-IP; sequential: anti-FLAG (M2 agarose), elution with 3xFLAG peptide, then anti-Myc immunoprecipitation; TLC1 RNA in the final immunoprecipitate measured by qRT-PCR as a proxy; strains yEHB22,825-827

| binding [1] | binding [2] | binding [3] | Binder |
| --- | --- | --- | --- |
| no binding |  |  | Est2 (telomerase reverse transcriptase domain-containing protein), two-hybrid fusions (enzyme, UniProt Q06163 1-884) MKILFEFIQDKLDIDLQTNSTYKENLKCGHFNGLDEILTTCFALPNSRKIALPCLPGDLSHKAVIDHCIIYLLTGELYNNVLTFGYKIARNEDVNNSLFCHSANVNVTLLKGAAWKMFHSLVGTYAFVDLLINYTVIQFNGQFFTQIVGNRCNEPHLPPKWAQRSSSSSATAAQIKQLTEPVTNKQFLHKLNINSSSFFPYSKILPSSSSIKKLTDLREAIFPTNLVKIPQRLKVRINLTLQKLLKRHKRLNYVSILNSICPPLEGTVLDLSHLSRQSPKERVLKFIIVILQKLLPQEMFGSKKNKGKIIKNLNLLLSLPLNGYLPFDSLLKKLRLKDFRWLFISDIWFTKHNFENLNQLAICFISWLFRQLIPKIIQTFFYCTEISSTVTIVYFRHDTWNKLITPFIVEYFKTYLVENNVCRNHNSYTLSNFNHSKMRIIPKKSNNEFRIIAIPCRGADEEEFTIYKENHKNAIQPTQKILEYLRNKRPTSFTKIYSPTQIADRIKEFKQRLLKKFNNVLPELYFMKFDVKSCYDSIPRMECMRILKDALKNENGFFVRSQYFFNTNTGVLKLFNVVNASRVPKPYELYIDNVRTVHLSNQDVINVVEMEIFKTALWVEDKCYIREDGLFQGSSLSAPIVDLVYDDLLEFYSEFKASPSQDTLILKLADDFLIISTDQQQVINIKKLAMGGFQKYNAKANRDKILAVSSQSDDDTVIQFCAMHIFVKELEVWKHSSTMNNFHIRSKSSKGIFRSLIALFNTRISYKTIDTNLNSTNTVLMQIDHVVKNISECYKSAFKDLSINVTQNMQFHSFLQRIIEMTVSGCPITKCDPLIEYEVRFTILNGFLESLSSNTSKFKDNIILLRKEIQHLQAYIYIYIHIVN |
|  | no binding | no binding | Est2 tagged with 3xFLAG or 13xMyc (Est2-FLAG and Est2-myc co-expressed) (enzyme, UniProt Q06163 1-884) MKILFEFIQDKLDIDLQTNSTYKENLKCGHFNGLDEILTTCFALPNSRKIALPCLPGDLSHKAVIDHCIIYLLTGELYNNVLTFGYKIARNEDVNNSLFCHSANVNVTLLKGAAWKMFHSLVGTYAFVDLLINYTVIQFNGQFFTQIVGNRCNEPHLPPKWAQRSSSSSATAAQIKQLTEPVTNKQFLHKLNINSSSFFPYSKILPSSSSIKKLTDLREAIFPTNLVKIPQRLKVRINLTLQKLLKRHKRLNYVSILNSICPPLEGTVLDLSHLSRQSPKERVLKFIIVILQKLLPQEMFGSKKNKGKIIKNLNLLLSLPLNGYLPFDSLLKKLRLKDFRWLFISDIWFTKHNFENLNQLAICFISWLFRQLIPKIIQTFFYCTEISSTVTIVYFRHDTWNKLITPFIVEYFKTYLVENNVCRNHNSYTLSNFNHSKMRIIPKKSNNEFRIIAIPCRGADEEEFTIYKENHKNAIQPTQKILEYLRNKRPTSFTKIYSPTQIADRIKEFKQRLLKKFNNVLPELYFMKFDVKSCYDSIPRMECMRILKDALKNENGFFVRSQYFFNTNTGVLKLFNVVNASRVPKPYELYIDNVRTVHLSNQDVINVVEMEIFKTALWVEDKCYIREDGLFQGSSLSAPIVDLVYDDLLEFYSEFKASPSQDTLILKLADDFLIISTDQQQVINIKKLAMGGFQKYNAKANRDKILAVSSQSDDDTVIQFCAMHIFVKELEVWKHSSTMNNFHIRSKSSKGIFRSLIALFNTRISYKTIDTNLNSTNTVLMQIDHVVKNISECYKSAFKDLSINVTQNMQFHSFLQRIIEMTVSGCPITKCDPLIEYEVRFTILNGFLESLSSNTSKFKDNIILLRKEIQHLQAYIYIYIHIVN |
